In article PMC7442838:
These are yes or no findings as the source states them, for the method shown. In cells and extracts the contact can be indirect. For some assays here: A result given as binding can be weak or reduced; the word gives no strength. Tags and fused reporters may be left off the sequences shown.

Tests used:
[1] = target: T1, TMEM59-GFP (full length TMEM59, GFP-tagged) (human) (UniProt Q9BXS4); assay: co-IP; BV2 cells co-transfected for 24 h with Myc- and GFP-tagged plasmids; NP-40 lysis buffer (25 mM Tris-HCl pH 7.6, 150 mM NaCl, 1 mM EDTA, 1% Nonidet P-40); immunoprecipitation with antibodies against Myc or GFP or control mouse IgG and Protein G Agarose overnight; immunoblot for Myc or GFP
T1 sequence: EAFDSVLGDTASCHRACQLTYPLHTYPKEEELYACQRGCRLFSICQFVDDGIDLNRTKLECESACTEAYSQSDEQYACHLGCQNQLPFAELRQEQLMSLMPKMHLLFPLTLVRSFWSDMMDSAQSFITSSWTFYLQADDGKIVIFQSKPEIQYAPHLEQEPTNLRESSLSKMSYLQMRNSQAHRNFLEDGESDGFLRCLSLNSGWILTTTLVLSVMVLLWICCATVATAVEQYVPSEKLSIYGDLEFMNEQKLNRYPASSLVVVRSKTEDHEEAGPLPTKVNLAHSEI

[2] = target: T2, TMEM59-Myc (full length TMEM59, Myc-tagged) (human) (UniProt Q9BXS4); assay: as above
T2 sequence: T1 sequence

binding [1] | binding [2] | Substance
no binding | – | TREM2-NTF-Myc (TREM2 N-terminal fragment) (domain or fragment)
– | binds | TREM2-CTF-GFP (TREM2 C-terminal fragment) (domain or fragment)
